{"source": "the supplement of paper PMC11732987", "about": "“Enantioselective OTUD7B fragment discovery through chemoproteomics screening and high-throughput optimisation” (Communications Chemistry, 2025)", "note": "The other results are listed elsewhere or left out. The data scatter; read single values as rough."}
{"compound": "ClCC(=O)N[C@H]1CCCc2ccccc12", "test": "log2 mean competition ratio of IA-DTB cysteine labelling (DMSO/compound) (log2 ratio); higher = stronger cysteine engagement by compound", "conditions": "200 µM; treatment time: 4 h; cell line lysate: HEK293T", "protocol": "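IA-DTB competitive cysteine chemoproteomics in HEK293T RIPA lysate. Lysates were treated with compound 29 or 30 at 50 or 200 µM for 4 h, then IA-DTB (500 µM, 1 h), trypsin-digested, NeutrAvidin-enriched and analysed by diaPASEF. Competition ratio = intensity DMSO / intensity compound (n=4 treated, n=64 DMSO); binding: mean log2 CR ≥ 1 and p ≤ 0.05 plus QC filters. Target is the cysteine site.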"}
{"target": "PPP2R2D C268 (UniProt Q66LE6)", "log2 mean competition ratio": -0.0978}
{"target": "PPP1R37 C124 (UniProt O75864)", "log2 mean competition ratio": 0.153}
{"target": "PRDM6 C426", "log2 mean competition ratio": 0.169}
{"target": "PRDM16 C113", "log2 mean competition ratio": 0.106}
{"target": "PRKDC C1742 (UniProt P78527)", "log2 mean competition ratio": -0.0446}
{"target": "PRPF38A C116 (UniProt Q8NAV1)", "log2 mean competition ratio": -0.128}
{"target": "PREP C25", "log2 mean competition ratio": -0.00632}
{"target": "PRKDC C4061 (UniProt P78527)", "log2 mean competition ratio": -0.0338}
{"target": "PRDX4 C51 (UniProt Q13162)", "log2 mean competition ratio": -0.0596}
{"target": "PRDX1 C173 (UniProt Q06830)", "log2 mean competition ratio": -0.242}
{"target": "POLR3E C350 (UniProt Q9NVU0)", "log2 mean competition ratio": 0.0955}
{"target": "PPP1R3D C26 (UniProt O95685)", "log2 mean competition ratio": -0.002}
{"target": "POLR2B C945 (UniProt P30876)", "log2 mean competition ratio": 0.175}
{"target": "PRMT7 C262 (UniProt Q9NVM4)", "log2 mean competition ratio": -0.0261}
{"target": "PRKAR2A C374 (UniProt P13861)", "log2 mean competition ratio": 0.106}
{"target": "PPIF C203 (UniProt P30405)", "log2 mean competition ratio": 0.0509}
{"target": "POLR2A C1287", "log2 mean competition ratio": -0.278}
{"target": "PPP6R2 C49 (UniProt O75170)", "log2 mean competition ratio": -0.135}
{"target": "POMT2 C21 (UniProt Q9UKY4)", "log2 mean competition ratio": 0.0553}
{"target": "PPP1R35 C142 (UniProt Q8TAP8)", "log2 mean competition ratio": -0.192}
{"target": "PPP4R1 C174 (UniProt Q8TF05)", "log2 mean competition ratio": 0.0561}
{"target": "PPM1G C164 (UniProt O15355)", "log2 mean competition ratio": -0.417}
{"target": "PRC1 C80 (UniProt O43663)", "log2 mean competition ratio": 0.227}
{"target": "PRPF6 C604 (UniProt O94906)", "log2 mean competition ratio": -0.221}
{"target": "PRPF6 C513 (UniProt O94906)", "log2 mean competition ratio": 0.254}
{"target": "PRDX3 C45 (UniProt P30048)", "log2 mean competition ratio": 0.298}
{"target": "PPIH C131 (UniProt O43447)", "log2 mean competition ratio": 0.425}
{"target": "PPP1CC;PPP1CA C140;(C140)", "log2 mean competition ratio": -0.0708}
{"target": "PPP6R1 C172 (UniProt Q9UPN7)", "log2 mean competition ratio": 0.123}
{"target": "POLR2B C161 (UniProt P30876)", "log2 mean competition ratio": 0.0916}
{"target": "PPP2CB C20", "log2 mean competition ratio": 0.408}
{"target": "PRMT9 C217 (UniProt Q6P2P2)", "log2 mean competition ratio": -0.0613}
{"target": "POLR2H C30 (UniProt P52434)", "log2 mean competition ratio": -0.303}
{"target": "PRR14L C1079 (UniProt Q5THK1)", "log2 mean competition ratio": 0.0505}
{"target": "POP1 C358 (UniProt Q99575)", "log2 mean competition ratio": 0.149}
{"target": "PPME1 C238 (UniProt Q9Y570)", "log2 mean competition ratio": 0.0681}
{"target": "PPP6R3 C172 (UniProt Q5H9R7)", "log2 mean competition ratio": -0.291}
{"target": "PRPF8 C1228 (UniProt Q6P2Q9)", "log2 mean competition ratio": -0.0337}
